The target of this assay is T1, Myc-EBR (UniProt Q9UJM3).
T1 sequence: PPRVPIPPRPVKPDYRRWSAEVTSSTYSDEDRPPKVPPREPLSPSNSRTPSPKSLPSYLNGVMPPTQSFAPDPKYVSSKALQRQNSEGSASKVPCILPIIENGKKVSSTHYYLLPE
The assay is described as follows: co-IP; Cos-1 co-transfected with FLAG-BRAF WT or V600E and Myc-MIG-6 or Myc-EBR, serum starved (reproducible after FBS incubation); reciprocal anti-Myc IP (1:500); blots for BRAF and pEGFR (Y1173).

Amino acid sequences for entries named in this document (tags omitted). A change or cut given only in a name is not applied to a line headed by its entry.
UniProt P15056: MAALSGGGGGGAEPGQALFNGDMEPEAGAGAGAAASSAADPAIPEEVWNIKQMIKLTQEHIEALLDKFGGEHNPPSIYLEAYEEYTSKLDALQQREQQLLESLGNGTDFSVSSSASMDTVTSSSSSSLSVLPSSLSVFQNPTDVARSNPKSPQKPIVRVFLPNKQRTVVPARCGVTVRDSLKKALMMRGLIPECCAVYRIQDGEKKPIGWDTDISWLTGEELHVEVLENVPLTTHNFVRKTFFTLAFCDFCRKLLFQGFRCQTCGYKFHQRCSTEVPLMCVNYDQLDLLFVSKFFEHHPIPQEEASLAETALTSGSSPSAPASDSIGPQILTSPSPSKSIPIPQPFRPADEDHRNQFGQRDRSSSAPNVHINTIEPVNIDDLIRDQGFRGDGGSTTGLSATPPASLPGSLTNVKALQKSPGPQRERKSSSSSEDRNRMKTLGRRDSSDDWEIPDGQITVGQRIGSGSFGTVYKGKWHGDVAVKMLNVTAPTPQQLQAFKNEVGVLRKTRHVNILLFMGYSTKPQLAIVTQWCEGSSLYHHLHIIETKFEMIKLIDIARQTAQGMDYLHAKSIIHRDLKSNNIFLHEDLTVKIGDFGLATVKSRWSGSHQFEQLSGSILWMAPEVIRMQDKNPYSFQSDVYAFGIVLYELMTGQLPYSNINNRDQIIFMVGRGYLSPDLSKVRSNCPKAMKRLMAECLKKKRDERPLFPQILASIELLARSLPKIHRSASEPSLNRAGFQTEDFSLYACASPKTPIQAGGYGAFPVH

Our source for the binding values is PMC4466796.

No constants are given. Whether binding was seen depends on the method and setting. In cells and extracts the contact can be indirect. Tags and fused reporters may be left off the sequences shown.

As for “FLAG-BRAF WT (from UniProt P15056 1-766)”, the binding result was “no binding”.
For “FLAG-BRAF V600E (from UniProt P15056 1-766)” the value was “no binding”.
